# Among all 330,000 compounds or so, about 100 (0.03%) were called active. The inconclusive results got no clear call from the source; some entries with a clear call stand among them for comparison. Calls follow the shape of the dose curve; as a rule, active = well fitted inhibition curve with a large enough effect; inconclusive = small, poorly fitted or top-dose-only effect; inactive = flat fitted curve, though single readings scatter. Potencies of inconclusive entries are doubtful fits and often do not repeat.
# Tested on: Chaperonin Mm-Cpn (Methanococcus maripaludis)
# Assay: Inhibitors of TCP-1 ring complex (TRiC) of Methanococcus maripaludis (MmCpn): qHTS; also: nearly all actives have a fitted effect of over 80% in size;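 as to Potency: enzyme at 25 nM with ATP substrate at 10 µM during the reaction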
# Conditions: purified Mm-Cpn ATPase, ADP Transcreener TR-FRET; activity, negative = inhibition: at the top concentration
# Outline: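 25 nM Mm-CPN + cpd, 10 min 37°C; + 10 uM ATP, 30 min 37°C; buffer 30 mM Tris pH 7.4, 100 mM KCl, 5 mM MgCl2, 1 mM DTT; Transcreener ADP HTRF detection 30 min RT.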
# % is scaled to controls: 0 for no effect and ±100 for the full control effect; potency is read from the fitted curve at half-maximal effect.
SMILES,Potency,"activity, negative = inhibition"
Cc1cccc(NC(=O)C2CCCN(S(=O)(=O)c3ccc4[nH]c(=O)ccc4c3)C2)c1 (stereo not drawn),"inconclusive: 28.2 µM [inhibitor, single point]",
O=C1CNC(=S)N1CCc1ccc(Cl)cc1,"inconclusive: 79.4 µM [inhibitor, single point]",
Fc1cc(Br)cc(F)c1NC(=S)N1CCOCC1,"inconclusive: 100 µM [inhibitor, partial curve, poor fit]",
CC(C)(C)c1ccc(-n2nc(C(N)=O)c(O)cc2=O)cc1,,inactive: -2.87%
COc1ccc(NC(=S)Nc2ncccc2C)cc1OC,"inconclusive: 12.6 µM [inhibitor, single point]",
Cc1nn(-c2ccccc2)c(Cl)c1/C=N/NC(=O)c1ccn[nH]1,"inconclusive: 79.4 µM [inhibitor, single point]",
Cc1ccnc(NS(=O)(=O)c2ccc(NC(=O)c3cc(-c4ccc(Br)cc4)nc4ccccc34)cc2)n1,"inconclusive: 100 µM [inhibitor, partial curve, poor fit]",
COc1ccc(S(=O)(=O)N2CCOCC2)cc1NC(=O)COc1ccc2ccc(=O)oc2c1,,inactive: 1.35%
CC(C)c1ccc(C2CC(c3ccc(Br)cc3)=NN2C(N)=S)cc1 (stereo not drawn),"inconclusive: 251 µM [inhibitor, partial curve, poor fit]",
COc1ccc(/C=C2\CCc3ccccc3C2=O)cc1OC,,inactive: -1.81%
CCCC1(c2ccccc2)NC(=O)N(CC(=O)c2[nH]c(C)c(C(=O)OCC)c2C)C1=O (stereo not drawn),,inactive: -3.22%
COCCNC(=O)c1c[nH]c2ccc(S(=O)(=O)N3CCOCC3)cc2c1=O,,inactive: 2%
CCN(CC)S(=O)(=O)c1ccc(N2CCc3ccccc3C2)nc1,"inconclusive: 282 µM [inhibitor, partial curve, poor fit]",
Nc1ccc(NC(=S)Nc2ccccc2)cc1,,inactive: 3.03%
Cn1c(N)c(C(=O)CSc2nnc(-c3cccs3)n2C2CC2)c(=O)[nH]c1=O,,inactive: 0.648%
Cc1nc2nc(SCC(=O)C(C)(C)C)[nH]c2cc1Br,"inconclusive: 100 µM [inhibitor, partial curve, poor fit]",
COc1cc(/C=C/c2ccc3cccc(O)c3n2)cc(Cl)c1OC,,inactive: -0.78%
O=C(COc1ccc([N+](=O)[O-])cc1)Nc1ccc(N2CCCC2)cc1,"inconclusive: 70.8 µM [inhibitor, single point]",
CC(C)OC(=O)CNc1n[nH]c(=S)[nH]c1=O,"inconclusive: 15.8 µM [inhibitor, partial curve, poor fit]",
COc1ccc(CN(CC(O)COc2cccc3[nH]cc(C)c23)C(C)(C)C)cc1 (stereo not drawn),"inconclusive: 22.4 µM [inhibitor, single point]",
Cc1ccc(NC(=O)c2cc(C)n(-c3cccc(C)c3)c2C)cc1,"inconclusive: 100 µM [inhibitor, single point]",
CCN(CC(=O)Nc1ccc2c(c1)OCCO2)C(=O)/C=C/c1ccccc1,,inactive: 3.09%
CCCSC(=S)NC1CCS(=O)(=O)C1 (stereo not drawn),"inconclusive: 25.1 µM [inhibitor, single point]",
Cc1ccc(S(=O)(=O)NCC(=O)NC2CC2)cc1,"inconclusive: 11.2 µM [inhibitor, single point]",

# Complete entries as entered above:
# `Cn1c(N)c(C(=O)CSc2nnc(-c3cccs3)n2C2CC2)c(=O)[nH]c1=O` as listed: activity, negative = inhibition: inactive: 0.648%
# `COc1ccc(S(=O)(=O)N2CCOCC2)cc1NC(=O)COc1ccc2ccc(=O)oc2c1` as listed: activity, negative = inhibition: inactive: 1.35%
# `Cc1ccc(S(=O)(=O)NCC(=O)NC2CC2)cc1` as listed: Potency: inconclusive: 11.2 µM [inhibitor, single point]

# The list continues.

SMILES,Potency,"activity, negative = inhibition"
O=C(Cc1cccs1)NCc1cccc(C(F)(F)F)c1,"inconclusive: 12.6 µM [inhibitor, single point]",
Oc1ccc(/C=N/NC(=S)N/N=C/c2ccc(O)cc2)cc1,,inactive: -13%
Cc1c(NC(=S)NC(=O)c2ccc(-c3ccc(Cl)cc3)o2)cccc1C(=O)O,,inactive: -1.85%
O=C(NCCc1ccc(Cl)cc1)c1ccc(CS(=O)Cc2ccccc2Cl)o1 (stereo not drawn),"inconclusive: 100 µM [inhibitor, single point]",
Cc1ccc(NC2c3ncccc3C(=O)N2c2ccccc2C)cc1C (stereo not drawn),,inactive: -11%
COc1ccc(-c2cnnn2-c2ccc(NC(=O)/C=C/c3ccc(OC)c(OC)c3)cc2)cc1,"inconclusive: 100 µM [inhibitor, partial curve, poor fit]",
Cc1nn(C)c(C(=O)NC2C3CC4CC(C3)CC2C4)c1Cl (stereo not drawn),"inconclusive: 10 µM [inhibitor, single point]",
CCOC(=O)c1cc(-c2cccs2)nc2onc(C)c12,"inconclusive: 100 µM [inhibitor, single point]",
Cc1noc(/C=C/c2nn(C)cc2Cl)c1[N+](=O)[O-],"inconclusive: 141 µM [inhibitor, partial curve, poor fit]",
O=C(CSc1nc2ccccc2[nH]1)N1CCCCC1,,inactive: -0.48%
CCCCCC(=O)NC(=S)Nc1ccc2oc(=O)ccc2c1,,inactive: -1.23%
COc1ccc(C2CC(=O)C3=C(C2)NC(C)=C(C#N)C3c2ccc(N(C)C)cc2)cc1 (stereo not drawn),"inconclusive: 100 µM [inhibitor, single point]",
COc1cc(OC)cc(-c2c(C#Cc3ccsc3)c3cc(Br)ccc3n2C)c1,"inconclusive: 63.1 µM [inhibitor, partial curve]",
CC(=O)Nc1ccc(NC(=O)CN2CCN(c3ccccn3)CC2)cc1,"inconclusive: 7.08 µM [inhibitor, single point]",
CC(=O)Nc1ccc(C2=NNC(=Nc3cccc(S(=O)(=O)N(C)C)c3)SC2)cc1,,inactive: -4.47%
O=C(Oc1ccc2ccc(=O)oc2c1)c1ccccc1,"inconclusive: 100 µM [inhibitor, single point]",
O=C(Nc1nc2ccccc2c(=O)s1)c1ccc(F)cc1Cl,,inactive: -9.88%
O=S(Cc1ccc(Br)cc1)Cc1nnc(SCc2c(F)cccc2Cl)n1-c1ccccc1 (stereo not drawn),,inactive: -2.73%
O=C(Cc1c(F)cccc1Cl)c1ccc(O)cc1O,"inconclusive: 89.1 µM [inhibitor, single point]",
CC(=O)C1=C(O)C(=O)N(c2ccc(S(=O)(=O)Nc3nccs3)cc2)C1c1ccc([N+](=O)[O-])cc1 (stereo not drawn),"inconclusive: 70.8 µM [inhibitor, single point]",
CCN(CC)c1ccc(N=Cc2ccccc2[N+](=O)[O-])cc1,"inconclusive: 79.4 µM [inhibitor, partial curve, poor fit]",
CCOC(=O)/C(=C\c1cccnc1)C(=O)c1cc(C(C)=O)c(Nc2ccccc2)s1,"inconclusive: 282 µM [inhibitor, partial curve, poor fit]",
CC(=O)c1cn(-c2ccc(Cl)cc2)c(=O)n(Cc2ccc(Br)cc2)c1=O,"inconclusive: 89.1 µM [inhibitor, single point]",
O=C(O)c1cccc(NC(=S)NC(=O)c2ccc(-c3ccccc3)cc2)c1,,inactive: 1.72%

# — PubChem BioAssay AID504842 (National Center for Advancing Translational Sciences (NCATS), 2011)
